This assay addresses PARP1 D756A (human) (UniProt P09874). Briefly: ITC; PARP1 D756A with HPF1; data in Supplementary Fig. 2 (ITC raw data); construct and conditions not told; both purified.

Chains of the proteins cited; added tags and fusions are not shown. Lines headed by an entry give the natural chain unless they say otherwise; changes in a name come on top.
UniProt P09874: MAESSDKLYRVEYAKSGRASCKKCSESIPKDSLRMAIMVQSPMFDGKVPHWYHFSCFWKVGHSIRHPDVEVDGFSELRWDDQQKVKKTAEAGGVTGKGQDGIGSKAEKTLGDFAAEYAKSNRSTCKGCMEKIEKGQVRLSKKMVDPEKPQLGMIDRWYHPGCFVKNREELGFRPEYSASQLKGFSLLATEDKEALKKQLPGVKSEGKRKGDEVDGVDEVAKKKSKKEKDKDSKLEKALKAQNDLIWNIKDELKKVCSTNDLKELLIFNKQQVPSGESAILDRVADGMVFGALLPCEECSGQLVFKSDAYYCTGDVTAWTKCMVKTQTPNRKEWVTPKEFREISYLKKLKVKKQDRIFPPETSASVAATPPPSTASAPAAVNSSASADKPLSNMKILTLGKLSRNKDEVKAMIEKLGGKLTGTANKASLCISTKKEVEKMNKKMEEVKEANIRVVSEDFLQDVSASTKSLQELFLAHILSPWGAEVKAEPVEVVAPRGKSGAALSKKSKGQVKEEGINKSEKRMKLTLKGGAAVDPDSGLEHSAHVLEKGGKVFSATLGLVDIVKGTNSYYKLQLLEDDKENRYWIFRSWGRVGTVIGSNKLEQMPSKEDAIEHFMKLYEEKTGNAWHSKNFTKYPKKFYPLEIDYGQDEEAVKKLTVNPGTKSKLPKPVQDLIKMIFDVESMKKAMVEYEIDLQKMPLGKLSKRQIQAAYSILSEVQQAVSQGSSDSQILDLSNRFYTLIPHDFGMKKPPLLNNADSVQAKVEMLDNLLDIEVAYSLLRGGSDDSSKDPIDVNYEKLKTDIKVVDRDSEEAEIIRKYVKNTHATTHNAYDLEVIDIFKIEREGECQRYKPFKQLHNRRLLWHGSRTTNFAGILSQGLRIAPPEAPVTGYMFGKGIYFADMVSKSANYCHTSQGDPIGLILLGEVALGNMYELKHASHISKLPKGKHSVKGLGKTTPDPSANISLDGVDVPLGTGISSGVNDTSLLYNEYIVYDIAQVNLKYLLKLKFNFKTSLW

Results are given in words; binding and its absence hold for the method and conditions named. Binding calls can cover weak binding; strength is not graded here. Sequences can lack the tags named with a protein.

B1: human HPF1 (histone PARylation factor 1), wild-type (protein, UniProt Q9NWY4 1-346)
chain: MVGGGGKRRPGGEGPQCEKTTDVKKSKFCEADVSSDLRKEVENHYKLSLPEDFYHFWKFCEELDPEKPSDSLSASLGLQLVGPYDILAGKHKTKKKSTGLNFNLHWRFYYDPPEFQTIIIGDNKTQYHMGYFRDSPDEFPVYVGINEAKKNCIIVPNGDNVFAAVKLFLTKKLREITDKKKINLLKNIDEKLTEAARELGYSLEQRTVKMKQRDKKVVTKTFHGAGLVVPVDKNDVGYRELPETDADLKRICKTIVEAASDEERLKAFAPIQEMMTFVQFANDECDYGMGLELGMDLFCYGSHYFHKVAGQLLPLAYNLLKRNLFAEIIEEHLANRSQENIDQLAA
B1: the binding entry was “binds”.

The values are drawn from PMC7884425.
